# Data: US20240066027A1 (DOMAIN THERAPEUTICS, priority 2020, published 2024)
# pIC50: −log10 of the molar value. Some results were stated once for a whole list of compounds, not compound by compound.
# Target: T1, human PAR-2 (hPAR-2) receptor expressed in HEK-293 T cells in an endogenous manner (Homo sapiens, UniProt P55085)
# T1 construct: human PAR-2 (hPAR-2) receptor expressed in HEK-293 T cells in an endogenous manner; endogenous in cells; host or cells: HEK-293 T cells
# T1 sequence (P55085 26-397): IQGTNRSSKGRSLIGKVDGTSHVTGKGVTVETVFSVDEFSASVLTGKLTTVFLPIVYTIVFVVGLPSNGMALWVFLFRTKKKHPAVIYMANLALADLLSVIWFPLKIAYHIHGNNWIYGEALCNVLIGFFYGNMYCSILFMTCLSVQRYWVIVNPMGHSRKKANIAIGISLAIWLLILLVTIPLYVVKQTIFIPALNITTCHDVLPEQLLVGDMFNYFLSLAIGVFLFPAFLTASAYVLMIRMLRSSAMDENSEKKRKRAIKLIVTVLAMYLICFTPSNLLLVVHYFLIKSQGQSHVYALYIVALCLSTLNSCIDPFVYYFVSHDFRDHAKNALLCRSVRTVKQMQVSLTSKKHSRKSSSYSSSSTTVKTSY
# Assay: In vitro human PAR-2 functional antagonist activity using calcium assays (Fluo4AM, FLIPR Tetra)
# Type: cell-based
# Conditions: HEK-293 T cells stimulated by an EC80 of the 2-Furoyl-LIGRLO-NH2 peptide after 10 min incubation with compound; 20 concentrations, duplicate, two independent experiments
# Description: In vitro human PAR-2 functional antagonist activity using calcium assays
# Examples of the present invention were tested successively for their agonist and antagonist activities on human PAR-2 (hPAR-2) receptor expressed in HEK-293 T cells in an endogenous manner. Compounds exert agonist activity if, by themselves in absence of the 2-Furoyl-LIGRLO-NH2 peptide (selective hPAR-2 agonist), they activate PAR-2; they exert antagonist activity if they decrease the action of the 2-Furoyl-LIGRLO-NH2 peptide on the receptor. The assay used to determine compound activity is based on calcium measurement. […]
# Calcium assay: Receptor activity was detected by changes in intracellular calcium measured using the fluorescent Ca^2+ sensitive dye, Fluo4AM (Molecular Probes). […]
# Agonist and antagonist activities of compounds were consecutively evaluated on the same cell plate. Agonist activity was first measured after 10 min incubation with the compound alone. Then, cells were stimulated by an EC80 of the 2-Furoyl-LIGRLO-NH2 peptide and fluorescence was recorded for an additional 5 min. […] Agonist activities are evaluated in comparison to basal signals evoked by assay buffer or maximal 2-Furoyl-LIGRLO-NH2 response. […] Antagonist activities are evaluated in comparison to basal signals evoked by assay buffer or EC80 of 2-Furoyl-LIGRLO-NH2 alone.
smiles,measurement,value
"CC(C)(C)n1cc(-c2ccc(Cl)c(F)c2)c2ccc(C(=O)N3[C@@H]4CC[C@H]3CC(O)C4)nc21 (stereo partly drawn) [Example 12, (1-(tert-butyl)-3-(4-chloro-3-fluorophenyl)-1H-pyrrolo[2,3-b]pyridin-6-yl)((1R,3s,5S)-3-hydroxy-8-azabicyclo[3.2.1]octan-8-yl)methanone]",pIC50,< 5.00
